The list shows a part of the results. These are further read-outs of the screen, such as a control signal, another cell line or another target. No call is given for them. The list favours compounds with an active or inconclusive main result. The note in brackets gives the kind of curve behind each potency; many fits are weak.
Test: qHTS Assay for Lipid Storage Modulators in Drosophila S3 Cells;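 as to cell number change: cells counted by Cell Tracker Red CMTPX staining in the red channel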
Conditions: BODIPY lipid droplet fluorescence, 18-24 h; for cell number change: measured here: cell count max response, cells fed with added oleic acid
Method in brief: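 Laser-scanning cytometry quantifies lipid droplet accumulation (500–530 nm total intensity; droplet/cell object ratio) in oleic acid-fed (400 uM added) Drosophila S3 cells treated with a concentration series. 20 uM Triacsin C defined 100% inhibition.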

[1] = measured here: cell number channel AC50, cells fed with added oleic acid
[2] = measured here: lipid fluorescence (Fed channel) AC50, cells fed with added oleic acid

Row | SMILES | cell number change [%] | AC50 [1] | AC50 [2]
1 | COc1ccccc1N1CCN(C(C)C(=O)Nc2ccc(S(=O)(=O)N3CCOCC3)cc2)CC1 (centres undefined) | 42.8 | 3.66 µM [rising, full curve] | –
2 | Cn1c(C(=O)NCc2cccnc2)cc2sc(Cl)cc21 | -3.09 | – | 0.58 µM [rising, partial curve]
3 | CCN(CC)c1nc(Nc2ccccc2)nc(Oc2ccc(=O)[nH]n2)n1 | – | – | 0.259 µM [rising, partial curve, poor fit]
4 | CCN(CC)CCNC(=O)c1cn(CC)c2ccc(S(=O)(=O)N3CCOCC3)cc2c1=O | – | – | 29.1 µM [rising, single point]
5 | O=C(Nc1ccc(O)cc1C(=O)O)c1ccc(NC(=O)c2ccco2)cc1 | 9.17 | – | –
6 | CCN1CCN(C(=O)c2cc3c(=O)oc4ccc(C)cc4c3s2)CC1 | 7.42 | – | 6.51 µM [rising, single point]
7 | COCCn1c(SCC(=O)NC(C)c2ccccc2)nc2ccccc21 (centres undefined) | 6.41 | – | 6.51 µM [rising, single point]
8 | O=C(/C=C/c1ccc2c(c1)OCO2)NCc1cn2cc(Cl)ccc2n1 | – | – | 6.51 µM [falling, single point]
9 | Cc1ccc(CCNS(=O)(=O)c2ccc3c(c2)N(C)CCO3)cc1 | 62 | 29.1 µM [rising, single point] | 29.1 µM [rising, single point]
10 | CCOC(=O)N1CCN(C(=O)COc2ccc3ccccc3c2Br)CC1 | 10.1 | – | 6.51 µM [rising, partial curve, poor fit]
11 | C#Cc1ccc([C@@H]2C=C(C(=O)NCc3nc4ccccc4[nH]3)O[C@H](OCC)[C@H]2CCCO)cc1 | 25.9 | – | 2.06 µM [rising, partial curve]
12 | CC(NC(=O)CSc1n[nH]c(N)n1)c1ccccc1 (centres undefined) | 26.7 | 1.03 µM [rising, full curve, poor fit] | –
13 | CCOC(=O)c1sc2ccc(S(=O)(=O)N3CCCCC3)cc2c1N | -1.82 | – | 2.59 µM [rising, partial curve]
14 | COc1ccc(NC(=O)N2CCN(c3ccc([N+](=O)[O-])cc3)CC2)cc1OC | 16.4 | 2.31 µM [rising, partial curve] | 0.731 µM [rising, partial curve]
15 | COC(=O)[C@]1(C)CCC[C@@]2(C)C3CC[C@@]4(C)C[C@]3(CCC21)CC(=O)N4 (some centres undefined) | -5.99 | – | 0.146 µM [rising, full curve]
16 | CCOC(=O)N1CCC(NC(=O)C(NC(=O)C2CCC(C)CC2)C(C)CC)CC1 (centres undefined) | -58.9 | 25.9 µM [falling, single point] | 1.03 µM [falling, full curve, poor fit]
17 | N=c1c(C(=O)NCC2CCCO2)cc2c(=O)n3ccccc3nc2n1Cc1ccco1 (centres undefined) | -22.2 | – | 6.51 µM [falling, single point]
18 | CCn1c2ccccc2c2cc(N=C3SC(CC(=O)Nc4ccccc4OC)C(=O)N3CCOC)ccc21 (centres undefined) | 15.7 | – | –
19 | Nc1cc(S(=O)(=O)Nc2cc(Cl)ccc2Cl)ccc1N1CCOCC1 | 14.7 | – | –
20 | Cc1cccc(NC(=O)c2ccccc2OCC(=O)c2ccc(F)cc2)c1 | 8.89 | 0.651 µM [falling, single point] | 29.1 µM [falling, single point]
21 | CS(=O)(=O)N(CC(=O)NCC1CCCO1)c1ccc(F)c(Cl)c1 (centres undefined) | – | – | 0.82 µM [falling, full curve, poor fit]
22 | N#CC1(Cc2ccc([N+](=O)[O-])cc2)c2ccccc2C=CN1C(=O)c1ccccc1 (centres undefined) | 36.9 | 14.6 µM [rising, partial curve] | 18.4 µM [rising, single point]
23 | Cc1cccc(CN2C(=O)c3ccccc3S(=O)(=O)c3ccc(C(=O)NCCCN4CCCC4)cc32)c1 | – | – | 29.1 µM [rising, single point]
24 | O=C(CNC(=O)c1ccccc1F)NCCN1C(=O)S/C(=C\c2ccccc2Cl)C1=O | -9.97 | – | –
25 | CCOc1nc2cnccc2n(CC(=O)Nc2cccc(C)c2C)c1=O | 8.55 | – | 0.651 µM [rising, partial curve, poor fit]
26 | CC(C)Oc1ccc(CC2CCC(=O)N(C)C2=O)cc1 (centres undefined) | 13.7 | 4.11 µM [falling, single point] | 0.00461 µM [rising, full curve, poor fit]
27 | Cc1c(-n2c(SCC(N)=O)nc3ccccc3c2=O)c(=O)n(-c2ccccc2)n1C | 43.3 | 29.1 µM [rising, single point] | 29.1 µM [rising, single point]
28 | CSc1ccc(N=Nc2c(C)[nH]n(C)c2=O)cc1 | -68.1 | 29.1 µM [falling, single point] | 29.1 µM [falling, single point]

Of the compounds above, these have an aryl thioether with sulfur outside any ring:
Row | SMILES | cell number change [%] | AC50 [1] | AC50 [2]
7 | COCCn1c(SCC(=O)NC(C)c2ccccc2)nc2ccccc21 (centres undefined) | 6.41 | – | 6.51 µM [rising, single point]
12 | CC(NC(=O)CSc1n[nH]c(N)n1)c1ccccc1 (centres undefined) | 26.7 | 1.03 µM [rising, full curve, poor fit] | –
27 | Cc1c(-n2c(SCC(N)=O)nc3ccccc3c2=O)c(=O)n(-c2ccccc2)n1C | 43.3 | 29.1 µM [rising, single point] | 29.1 µM [rising, single point]
28 | CSc1ccc(N=Nc2c(C)[nH]n(C)c2=O)cc1 | -68.1 | 29.1 µM [falling, single point] | 29.1 µM [falling, single point]

(cont.)

Row | SMILES | cell number change [%] | AC50 [1] | AC50 [2]
29 | COc1ccccc1CNC(=O)C(NC(=O)c1ccccc1)C(C)C (centres undefined) | 17.3 | 0.082 µM [rising, partial curve, poor fit] | –
30 | COC(=O)c1cc(C(=O)OCC(=O)NC(=O)c2ccccc2)cc([N+](=O)[O-])c1 | -7.23 | – | –
31 | NS(=O)(=O)c1ccc(NC(=O)COC(=O)c2ccc3c(c2)OCCO3)cc1 | 108 | 29.1 µM [rising, single point] | 29.1 µM [rising, single point]
32 | COc1cccc(/C=C/C(=O)OCC(=O)Nc2ccc(Cl)c(S(=O)(=O)N(C)C)c2)c1 | -29.1 | 2.06 µM [falling, full curve, poor fit] | 0.58 µM [falling, full curve, poor fit]
33 | COc1ccc(CN2CCN(S(=O)(=O)c3ccccc3)CC2)cc1Br | 65.9 | 29.1 µM [rising, single point] | 29.1 µM [rising, single point]
34 | COc1ccc(-n2c(O)c(/C=N/NS(=O)(=O)c3ccc(C)c([N+](=O)[O-])c3)c3ccccc3c2=O)cc1OC | 131 | – | 29.1 µM [rising, single point]
35 | COC(=O)CSC1=C(C#N)C(c2ccc(F)cc2)CC(=O)N1 (centres undefined) | 14.7 | – | 0.103 µM [rising, full curve]
36 | Cn1cc(CNC(=O)C2CCC(=O)N(Cc3ccccc3F)C2)cn1 (centres undefined) | -20.5 | – | 4.61 µM [falling, partial curve]
37 | O=C(CNC(=O)c1ccccc1F)NCCCN1CCCC1=O | -0.951 | – | 29.1 µM [falling, single point]
38 | O=C(COC(=O)CNS(=O)(=O)c1ccc(F)c(F)c1F)NC1CCCC1 | – | 6.51 µM [falling, single point] | 0.00517 µM [rising, full curve, poor fit]
39 | N=c1n(CCN2CCCCC2)c2ccccc2n1CC(=O)c1ccc(Cl)c(Cl)c1 | -31.9 | 20.6 µM [falling, single point] | 29.1 µM [falling, single point]
40 | COc1ccc2nc(-c3cccc(N)c3)[nH]c2c1 | 1.5 | – | 2.91 µM [rising, partial curve]
41 | O=C(CSc1nnc(-c2cccs2)n1Cc1ccccc1)N1CCc2ccccc2C1 | -33 | 3.66 µM [falling, full curve] | 5.17 µM [falling, full curve]
42 | O=C(O)c1cccc(S(=O)(=O)Nc2ccccc2N2CCOCC2)c1 | -34.4 | 1.3 µM [falling, full curve] | 0.92 µM [falling, full curve]
43 | Cc1ccc(/C=C/C(=O)Nc2cc(S(N)(=O)=O)ccc2O)cc1 | – | – | 7.31 µM [rising, partial curve]
44 | CC(Oc1ccc(F)cc1)C(=O)/C=C\N(C)C (centres undefined) | -40.1 | 3.66 µM [falling, full curve] | 7.31 µM [falling, partial curve]
45 | Cc1ccc(C(=O)NCC(=O)NCC(=O)OCc2ccc(F)cc2)cc1 | -4.41 | – | 1.03 µM [falling, single point]
46 | COC(=O)c1c(NC(=O)COC(=O)c2ccc(NC(=O)CC#N)cc2)sc2c1CCCCC2 | 10.5 | – | 0.00517 µM [falling, full curve, poor fit]
47 | Cc1ccc(S(=O)(=O)Nc2c(O)c3ccccc3oc2=O)cc1 | 19.2 | – | –
48 | CCOC(=O)c1c(C)[nH]c(C(=O)CN(C)CC(=O)Nc2ccccc2C(F)(F)F)c1C | 25.7 | – | 6.51 µM [falling, single point]
49 | Cc1ccc(C(=O)NCCNC(=O)c2ccc(C)nc2)cc1 | 15.5 | 0.0291 µM [rising, full curve, poor fit] | 29.1 µM [rising, single point]
50 | COc1ccc(NC(C)c2cc(Cl)ccc2O)cc1 (centres undefined) | -125 | 29.1 µM [falling, single point] | 29.1 µM [falling, single point]
51 | CC(C)(C)C(=O)COC(=O)c1c2c(nc3ccccc13)CCC2 | – | – | 0.116 µM [falling, single point]
52 | CCCn1c(SCC(=O)Nc2cc(S(=O)(=O)N3CCOCC3)ccc2Cl)n[nH]c1=O | – | – | 29.1 µM [rising, single point]
53 | COc1cc(CNCCc2ccccc2F)ccc1OCC(=O)N1CCCCC1 | 8.72 | – | 13 µM [falling, partial curve]
54 | Cc1ccc(C)c(NS(=O)(=O)c2cc(C(=O)NCc3ccncc3)ccc2C)c1 | 15.3 | – | 0.58 µM [rising, single point]
55 | Cc1ccccc1C(=O)NNC(=O)C1CCN(C(=O)Nc2ccccc2)CC1 | -99.2 | 2.06 µM [falling, partial curve] | 8.2 µM [falling, partial curve]
